# Values joined by “and” are separate entries in the source; they are usually repeats but may differ in a detail not shown here. Identical values can stand only once. At least one peptide structure holds a part that was inferred or is arguable (an end, a ring closure or a residue). No end group written: not given here.
# Tests used:
# [1] = system: acute myocardial ischemia rats (coronary artery ligation); assay: Serum creatine kinase (CK) and lactic dehydrogenase (LDH) of acute myocardial ischemia rats; assay type: in vivo, Sprague-Dawley male rats; details: 5 hours after ligation; for LDH in blood serum: model group 4736 ± 755.7, P<0.01 vs model; for CK in blood serum: model group 7680 ± 2380, P<0.05 vs model
# [2] = system: human monocytes and polymorphonuclear neutrophils; details: in vitro and in vivo; background statement; cited from earlier work
# [3] = system: MIP-1α, MIP-1β, 1L-1β and TNF-α; details: background statement; cited from earlier work
# [4] = MLIF high-dose group 0.5 mg/kg tail i.v.
# [5] = MLIF low-dose group 0.15 mg/kg tail i.v.
substance,measurement,setting,value
"MQCNS [MLIF, Met-Gln-Cys-Asn-Ser]",LDH in blood serum,[1]; [4],"3642±817 IU/L and 3642 ± 817^ΔΔ,** IU/L"
same,CK in blood serum,[1]; [4],"5244±1787.8 IU/L and 5244 ± 1787.8^ΔΔ,* IU/L"
same,LDH in blood serum,[1]; [5],"3156±864.1 IU/L and 3156 ± 864.1^ΔΔ,** IU/L"
same,CK in blood serum,[1]; [5],"5258±2114.3 IU/L and 5258 ± 2114.3^ΔΔ,* IU/L"
same,migration of human monocytes and polymorphonuclear neutrophils,[2],inhibits the migration of human monocytes and polymorphonuclear neutrophils
same,effect on inflammation chemokines and inflammatory cytokines secretion,[3],"inhibits inflammation chemokines such as MIP-1α and MIP-1β, and represses inflammatory cytokines secretion like 1L-1β and TNF-α"
